Reference: paper doi:10.1101/2020.06.18.159293
Results are given in words; binding and its absence hold for the method and conditions named. In cells and extracts the contact can be indirect. A yes stands for co-enrichment or nearness to the bait. Other partners may have been found.

Amino acid sequences for entries named in this document (tags omitted).
UniProt Q5T5Y3: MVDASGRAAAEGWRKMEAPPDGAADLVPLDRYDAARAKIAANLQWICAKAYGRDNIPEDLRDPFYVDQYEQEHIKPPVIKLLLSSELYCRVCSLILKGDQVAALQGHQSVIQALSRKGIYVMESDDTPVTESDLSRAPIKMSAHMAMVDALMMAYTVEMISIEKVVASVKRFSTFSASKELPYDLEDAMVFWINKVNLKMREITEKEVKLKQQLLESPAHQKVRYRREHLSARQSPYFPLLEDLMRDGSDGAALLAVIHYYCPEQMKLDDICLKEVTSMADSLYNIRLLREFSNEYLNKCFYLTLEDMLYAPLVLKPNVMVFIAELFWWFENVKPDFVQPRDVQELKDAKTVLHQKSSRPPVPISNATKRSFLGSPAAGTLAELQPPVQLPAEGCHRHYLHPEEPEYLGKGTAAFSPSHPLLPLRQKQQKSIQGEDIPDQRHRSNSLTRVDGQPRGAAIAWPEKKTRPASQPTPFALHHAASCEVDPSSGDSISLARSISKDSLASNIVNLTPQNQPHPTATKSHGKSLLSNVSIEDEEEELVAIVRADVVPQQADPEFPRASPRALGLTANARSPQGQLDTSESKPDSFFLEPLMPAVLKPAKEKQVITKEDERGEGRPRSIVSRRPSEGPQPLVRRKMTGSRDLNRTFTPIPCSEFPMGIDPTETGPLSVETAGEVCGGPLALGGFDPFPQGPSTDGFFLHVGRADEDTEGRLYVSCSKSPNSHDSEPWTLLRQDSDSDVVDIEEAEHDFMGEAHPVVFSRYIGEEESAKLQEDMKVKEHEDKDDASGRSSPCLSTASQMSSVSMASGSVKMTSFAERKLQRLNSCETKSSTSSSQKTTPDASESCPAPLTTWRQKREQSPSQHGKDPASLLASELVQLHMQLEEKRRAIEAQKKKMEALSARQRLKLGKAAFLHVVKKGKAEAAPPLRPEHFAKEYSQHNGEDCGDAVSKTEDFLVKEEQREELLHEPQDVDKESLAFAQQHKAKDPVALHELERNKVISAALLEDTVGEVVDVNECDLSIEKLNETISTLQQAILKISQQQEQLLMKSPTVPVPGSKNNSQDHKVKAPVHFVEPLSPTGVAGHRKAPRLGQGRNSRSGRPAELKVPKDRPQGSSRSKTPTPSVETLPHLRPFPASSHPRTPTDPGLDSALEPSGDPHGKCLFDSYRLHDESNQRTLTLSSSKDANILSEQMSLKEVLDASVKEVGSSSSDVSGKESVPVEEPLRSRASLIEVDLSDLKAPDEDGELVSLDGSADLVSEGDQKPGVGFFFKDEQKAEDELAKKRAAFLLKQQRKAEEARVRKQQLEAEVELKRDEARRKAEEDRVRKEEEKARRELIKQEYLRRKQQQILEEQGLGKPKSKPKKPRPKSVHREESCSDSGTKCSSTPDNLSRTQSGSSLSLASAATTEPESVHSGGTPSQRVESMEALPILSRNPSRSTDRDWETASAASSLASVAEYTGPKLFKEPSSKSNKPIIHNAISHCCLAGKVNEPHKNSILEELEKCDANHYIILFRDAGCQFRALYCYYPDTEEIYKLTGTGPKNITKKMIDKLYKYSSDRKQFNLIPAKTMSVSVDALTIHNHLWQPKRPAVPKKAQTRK
UniProt Q92845: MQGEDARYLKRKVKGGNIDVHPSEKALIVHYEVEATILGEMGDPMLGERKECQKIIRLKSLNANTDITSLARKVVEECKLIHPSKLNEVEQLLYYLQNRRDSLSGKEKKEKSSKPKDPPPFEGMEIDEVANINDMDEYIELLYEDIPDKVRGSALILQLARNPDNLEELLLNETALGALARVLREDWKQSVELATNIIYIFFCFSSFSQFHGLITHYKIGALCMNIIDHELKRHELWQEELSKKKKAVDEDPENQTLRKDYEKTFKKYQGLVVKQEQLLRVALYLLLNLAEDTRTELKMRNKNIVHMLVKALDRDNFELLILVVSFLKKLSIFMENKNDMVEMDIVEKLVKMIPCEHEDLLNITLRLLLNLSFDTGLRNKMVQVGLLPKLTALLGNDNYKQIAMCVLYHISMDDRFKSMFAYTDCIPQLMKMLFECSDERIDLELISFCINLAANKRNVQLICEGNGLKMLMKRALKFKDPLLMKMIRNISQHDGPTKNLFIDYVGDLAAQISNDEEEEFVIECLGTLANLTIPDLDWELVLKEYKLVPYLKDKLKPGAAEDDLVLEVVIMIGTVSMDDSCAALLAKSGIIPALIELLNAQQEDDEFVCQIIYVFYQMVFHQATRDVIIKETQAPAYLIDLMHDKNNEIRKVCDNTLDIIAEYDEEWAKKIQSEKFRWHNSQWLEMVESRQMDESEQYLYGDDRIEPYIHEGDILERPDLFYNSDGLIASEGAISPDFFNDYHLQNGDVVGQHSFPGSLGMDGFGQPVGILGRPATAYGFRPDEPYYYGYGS
UniProt O75116: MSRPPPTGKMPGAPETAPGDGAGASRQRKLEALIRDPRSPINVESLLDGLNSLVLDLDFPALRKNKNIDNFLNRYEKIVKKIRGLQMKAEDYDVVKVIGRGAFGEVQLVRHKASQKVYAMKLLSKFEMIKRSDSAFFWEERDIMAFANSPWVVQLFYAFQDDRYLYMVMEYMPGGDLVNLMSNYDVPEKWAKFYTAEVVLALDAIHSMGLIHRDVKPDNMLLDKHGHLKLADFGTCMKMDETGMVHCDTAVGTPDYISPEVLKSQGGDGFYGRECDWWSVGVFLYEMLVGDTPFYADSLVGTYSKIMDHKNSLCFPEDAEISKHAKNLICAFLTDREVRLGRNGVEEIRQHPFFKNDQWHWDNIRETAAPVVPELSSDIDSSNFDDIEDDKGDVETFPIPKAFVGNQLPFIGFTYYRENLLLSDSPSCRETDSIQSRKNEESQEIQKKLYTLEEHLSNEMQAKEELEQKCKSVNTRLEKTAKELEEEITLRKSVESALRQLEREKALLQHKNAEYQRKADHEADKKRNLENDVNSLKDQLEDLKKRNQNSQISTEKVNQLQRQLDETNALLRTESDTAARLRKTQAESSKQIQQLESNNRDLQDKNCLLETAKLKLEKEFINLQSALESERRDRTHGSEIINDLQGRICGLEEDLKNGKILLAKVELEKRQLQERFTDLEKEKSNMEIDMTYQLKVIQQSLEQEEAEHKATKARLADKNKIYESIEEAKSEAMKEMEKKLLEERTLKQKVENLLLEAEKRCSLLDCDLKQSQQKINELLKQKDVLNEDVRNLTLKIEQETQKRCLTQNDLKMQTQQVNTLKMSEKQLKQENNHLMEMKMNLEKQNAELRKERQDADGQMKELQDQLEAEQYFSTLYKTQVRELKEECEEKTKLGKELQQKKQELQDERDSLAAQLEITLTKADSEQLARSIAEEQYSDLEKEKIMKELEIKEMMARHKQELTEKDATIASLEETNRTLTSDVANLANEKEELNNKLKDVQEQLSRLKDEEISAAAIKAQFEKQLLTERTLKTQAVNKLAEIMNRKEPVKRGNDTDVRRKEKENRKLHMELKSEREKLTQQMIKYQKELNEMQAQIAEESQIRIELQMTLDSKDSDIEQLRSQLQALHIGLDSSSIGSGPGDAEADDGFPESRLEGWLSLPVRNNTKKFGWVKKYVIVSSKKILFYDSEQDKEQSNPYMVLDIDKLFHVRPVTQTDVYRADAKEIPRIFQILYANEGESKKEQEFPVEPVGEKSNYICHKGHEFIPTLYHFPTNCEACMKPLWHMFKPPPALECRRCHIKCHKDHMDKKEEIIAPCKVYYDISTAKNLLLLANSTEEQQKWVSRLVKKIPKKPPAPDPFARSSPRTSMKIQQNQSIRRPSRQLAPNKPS
UniProt O60333: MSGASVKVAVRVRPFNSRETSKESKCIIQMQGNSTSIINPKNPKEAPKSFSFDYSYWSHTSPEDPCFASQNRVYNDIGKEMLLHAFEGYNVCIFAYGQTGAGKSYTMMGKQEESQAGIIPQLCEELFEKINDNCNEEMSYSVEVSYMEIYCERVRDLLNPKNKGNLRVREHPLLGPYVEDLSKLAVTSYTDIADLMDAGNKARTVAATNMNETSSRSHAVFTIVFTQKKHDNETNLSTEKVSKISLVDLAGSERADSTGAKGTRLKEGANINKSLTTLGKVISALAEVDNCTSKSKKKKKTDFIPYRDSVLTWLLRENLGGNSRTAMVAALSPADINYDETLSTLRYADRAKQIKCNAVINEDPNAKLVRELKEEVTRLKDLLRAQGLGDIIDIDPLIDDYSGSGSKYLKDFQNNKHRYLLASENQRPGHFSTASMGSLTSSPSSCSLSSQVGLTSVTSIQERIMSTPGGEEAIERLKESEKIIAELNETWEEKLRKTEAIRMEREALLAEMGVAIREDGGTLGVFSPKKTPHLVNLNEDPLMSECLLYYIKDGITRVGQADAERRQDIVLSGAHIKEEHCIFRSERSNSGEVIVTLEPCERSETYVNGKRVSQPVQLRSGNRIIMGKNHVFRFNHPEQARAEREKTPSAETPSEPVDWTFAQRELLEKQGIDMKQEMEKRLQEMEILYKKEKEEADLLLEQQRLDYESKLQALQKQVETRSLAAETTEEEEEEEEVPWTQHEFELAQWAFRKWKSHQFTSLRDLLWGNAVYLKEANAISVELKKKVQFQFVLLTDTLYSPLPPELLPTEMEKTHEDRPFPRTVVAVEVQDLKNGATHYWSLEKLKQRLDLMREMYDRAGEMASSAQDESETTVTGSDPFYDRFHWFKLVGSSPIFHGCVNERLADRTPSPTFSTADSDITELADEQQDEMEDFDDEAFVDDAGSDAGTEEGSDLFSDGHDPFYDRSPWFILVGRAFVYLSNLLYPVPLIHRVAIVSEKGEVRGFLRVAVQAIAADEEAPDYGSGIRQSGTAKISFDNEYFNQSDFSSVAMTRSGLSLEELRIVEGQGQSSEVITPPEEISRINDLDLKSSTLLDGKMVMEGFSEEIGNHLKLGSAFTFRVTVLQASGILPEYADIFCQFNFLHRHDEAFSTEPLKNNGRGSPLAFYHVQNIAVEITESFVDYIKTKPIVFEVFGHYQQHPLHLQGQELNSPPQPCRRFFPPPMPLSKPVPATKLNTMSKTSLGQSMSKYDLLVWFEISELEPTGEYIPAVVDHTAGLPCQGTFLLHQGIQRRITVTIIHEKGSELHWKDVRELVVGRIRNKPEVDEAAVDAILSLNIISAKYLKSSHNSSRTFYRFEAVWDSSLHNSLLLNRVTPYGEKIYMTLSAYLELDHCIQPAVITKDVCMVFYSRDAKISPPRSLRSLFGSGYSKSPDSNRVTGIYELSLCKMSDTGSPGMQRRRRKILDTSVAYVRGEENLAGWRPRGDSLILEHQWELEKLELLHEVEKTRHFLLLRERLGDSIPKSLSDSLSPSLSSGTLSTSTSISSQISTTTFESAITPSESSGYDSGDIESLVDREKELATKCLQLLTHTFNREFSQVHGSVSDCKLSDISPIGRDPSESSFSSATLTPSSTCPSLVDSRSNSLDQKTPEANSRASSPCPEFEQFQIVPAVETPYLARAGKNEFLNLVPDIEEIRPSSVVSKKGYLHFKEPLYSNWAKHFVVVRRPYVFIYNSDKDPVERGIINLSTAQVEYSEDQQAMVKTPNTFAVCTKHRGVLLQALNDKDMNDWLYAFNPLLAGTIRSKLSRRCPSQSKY

T1: ULK4 R39 variant (BioID bait) (human) (UniProt Q96C45)
T1 sequence: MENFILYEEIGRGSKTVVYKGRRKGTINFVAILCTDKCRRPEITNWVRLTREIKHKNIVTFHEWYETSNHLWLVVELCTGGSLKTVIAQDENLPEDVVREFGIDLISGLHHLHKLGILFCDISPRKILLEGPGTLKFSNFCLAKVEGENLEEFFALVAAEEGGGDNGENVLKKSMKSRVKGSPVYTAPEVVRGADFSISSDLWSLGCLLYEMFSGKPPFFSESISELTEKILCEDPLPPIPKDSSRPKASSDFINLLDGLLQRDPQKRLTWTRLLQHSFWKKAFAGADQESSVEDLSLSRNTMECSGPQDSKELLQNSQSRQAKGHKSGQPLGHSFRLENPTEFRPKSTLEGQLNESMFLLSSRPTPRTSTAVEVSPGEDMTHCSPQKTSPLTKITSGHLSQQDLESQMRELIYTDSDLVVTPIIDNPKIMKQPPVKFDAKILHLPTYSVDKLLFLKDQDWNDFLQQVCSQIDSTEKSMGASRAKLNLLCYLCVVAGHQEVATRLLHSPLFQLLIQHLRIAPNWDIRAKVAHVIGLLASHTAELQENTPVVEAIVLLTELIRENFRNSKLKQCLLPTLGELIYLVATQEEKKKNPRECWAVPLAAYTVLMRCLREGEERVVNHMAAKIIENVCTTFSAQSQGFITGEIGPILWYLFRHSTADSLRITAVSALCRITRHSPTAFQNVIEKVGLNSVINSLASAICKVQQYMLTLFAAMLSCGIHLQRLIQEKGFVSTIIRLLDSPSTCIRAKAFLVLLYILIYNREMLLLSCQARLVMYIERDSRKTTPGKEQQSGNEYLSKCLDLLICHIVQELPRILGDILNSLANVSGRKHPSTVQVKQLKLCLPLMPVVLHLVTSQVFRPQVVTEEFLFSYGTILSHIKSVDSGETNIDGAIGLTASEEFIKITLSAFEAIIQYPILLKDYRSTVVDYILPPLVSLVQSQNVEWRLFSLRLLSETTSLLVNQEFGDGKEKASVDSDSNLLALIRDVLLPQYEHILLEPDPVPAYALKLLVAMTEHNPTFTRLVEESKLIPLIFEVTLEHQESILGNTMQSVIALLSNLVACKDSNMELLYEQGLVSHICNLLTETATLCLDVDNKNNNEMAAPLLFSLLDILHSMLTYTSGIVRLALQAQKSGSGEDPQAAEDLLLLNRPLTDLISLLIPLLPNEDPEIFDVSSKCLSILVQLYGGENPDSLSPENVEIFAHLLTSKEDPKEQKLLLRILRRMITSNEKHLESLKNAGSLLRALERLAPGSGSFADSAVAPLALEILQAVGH


Experiments:
Assay in all cases: proximity labelling
[1] = molecular target: N- and C-terminally FlagBirA* tagged full length ULK4 (BioID baits, hits pooled) (human) (UniProt Q96C45)
[2] = molecular target: T1, ULK4 R39 variant (BioID bait) (human)
[3] = molecular target: C-terminally FLAG-tagged full-length ULK4 (ULK4-BirA*Flag) (human) (UniProt Q96C45)
[4] = molecular target: N-terminally FLAG-tagged ULK4 (FlagBirA*-ULK4) (human) (UniProt Q96C45)

Row | binding [1] | binding [2] | binding [3] | binding [4] | Molecule
1 | binds | binds |  |  | STK36 (from UniProt Q9NRP7 1-1315)
2 | binds | binds | binds | binds | calmodulin regulated spectrin associated protein 1 (CAMSAP1) (from UniProt Q5T5Y3 1-1602)
3 | binds | binds |  |  | Microtubule Associated Serine/Threonine Kinase 2 MAST2 (from UniProt Q6P0Q8 1-1798)
4 | binds | binds |  |  | KIFAP3 (from UniProt Q92845 1-792)
5 | binds | binds |  |  | CSPP1 (Centrosome and Spindle Pole Associated Protein 1) (from UniProt Q1MSJ5 1-1256)
6 | binds | binds | binds | binds | Rho associated coiled-coil containing protein kinase 2 (ROCK2) (from UniProt O75116 1-1388)
7 | binds | binds |  |  | KIF1B (from UniProt O60333 1-1816)
8 | binds | binds |  |  | HAUS2 (protein, UniProt Q9NVX0 1-235) MAAANPWDPASAPNGAGLVLGHFIASGMVNQEMLNMSKKTVSCFVNFTRLQQITNIQAEIYQKNLEIELLKLEKDTADVVHPFFLAQKCHTLQSMNNHLEAVLKEKRSLRQRLLKPMCQENLPIEAVYHRYMVHLLELAVTFIERLETHLETIRNIPHLAANLKKMNQALAKMDILVTETEELAENILKWRKQQNEVSSCIPKILAEESYLYKHDIIMPPLPFTSKVHVQTINAK
9 | binds | binds |  |  | OFD1 (OFD1 centriole and centriolar satellite protein) (protein, UniProt O75665 1-1012) MMAQSNMFTVADVLSQDELRKKLYQTFKDRGILDTLKTQLRNQLIHELMHPVLSGELQPRSISVEGSSLLIGASNSLVADHLQRCGYEYSLSVFFPESGLAKEKVFTMQDLLQLIKINPTSSLYKSLVSGSDKENQKGFLMHFLKELAEYHQAKESCNMETQTSSTFNRDSLAEKLQLIDDQFADAYPQRIKFESLEIKLNEYKREIEEQLRAEMCQKLKFFKDTEIAKIKMEAKKKYEKELTMFQNDFEKACQAKSEALVLREKSTLERIHKHQEIETKEIYAQRQLLLKDMDLLRGREAELKQRVEAFELNQKLQEEKHKSITEALRRQEQNIKSFEETYDRKLKNELLKYQLELKDDYIIRTNRLIEDERKNKEKAVHLQEELIAINSKKEELNQSVNRVKELELELESVKAQSLAITKQNHMLNEKVKEMSDYSLLKEEKLELLAQNKLLKQQLEESRNENLRLLNRLAQPAPELAVFQKELRKAEKAIVVEHEEFESCRQALHKQLQDEIEHSAQLKAQILGYKASVKSLTTQVADLKLQLKQTQTALENEVYCNPKQSVIDRSVNGLINGNVVPCNGEISGDFLNNPFKQENVLARMVASRITNYPTAWVEGSSPDSDLEFVANTKARVKELQQEAERLEKAFRSYHRRVIKNSAKSPLAAKSPPSLHLLEAFKNITSSSPERHIFGEDRVVSEQPQVGTLEERNDVVEALTGSAASRLRGGTSSRRLSSTPLPKAKRSLESEMYLEGLGRSHIASPSPCPDRMPLPSPTESRHSLSIPPVSSPPEQKVGLYRRQTELQDKSEFSDVDKLAFKDNEEFESSFESAGNMPRQLEMGGLSPAGDMSHVDAAAAAVPLSYQHPSVDQKQIEEQKEEEKIREQQVKERRQREERRQSNLQEVLERERRELEKLYQERKMIEESLKIKIKKELEMENELEMSNQEIKDKSAHSENPLEKYMKIIQQEQDQESADKSSKKMVQEGSLVDTLQSSDKVESLTGFSHEELDDSW
10 | binds | binds |  |  | HAUS8 (HEC1/NDC80-Interacting Centrosome-Associated Protein) (protein, UniProt Q9BT25 1-410) MADSSGRGAGKPATGPTNSSSAKKKDKRVQGGRVIESRYLQYEKKTTQKAPAGDGSQTRGKMSEGGRKSSLLQKSKADSSGVGKGDLQSTLLEGHGTAPPDLDLSAINDKSIVKKTPQLAKTISKKPESTSFSAPRKKSPDLSEAMEMMESQTLLLTLLSVKMENNLAEFERRAEKNLLIMCKEKEKLQKKAHELKRRLLLSQRKRELADVLDAQIEMLSPFEAVATRFKEQYRTFATALDTTRHELPVRSIHLEGDGQQLLDALQHELVTTQRLLGELDVGDSEENVQVLDLLSELKDVTAKKDLELRRSFAQVLELSAEASKEAALANQEVWEETQGMAPPSRWYFNQDSACRESGGAPKNTPLSEDDNPGASSAPAQATFISPSEDFSSSSQAEVPPSLSRSGRDLS
11 | binds | binds |  |  | KIF3B (protein, UniProt O15066 1-747) MSKLKSSESVRVVVRCRPMNGKEKAASYDKVVDVDVKLGQVSVKNPKGTAHEMPKTFTFDAVYDWNAKQFELYDETFRPLVDSVLQGFNGTIFAYGQTGTGKTYTMEGIRGDPEKRGVIPNSFDHIFTHISRSQNQQYLVRASYLEIYQEEIRDLLSKDQTKRLELKERPDTGVYVKDLSSFVTKSVKEIEHVMNVGNQNRSVGATNMNEHSSRSHAIFVITIECSEVGLDGENHIRVGKLNLVDLAGSERQAKTGAQGERLKEATKINLSLSALGNVISALVDGKSTHIPYRDSKLTRLLQDSLGGNAKTVMVANVGPASYNVEETLTTLRYANRAKNIKNKPRVNEDPKDALLREFQEEIARLKAQLEKRSIGRRKRREKRREGGGSGGGGEEEEEEGEEGEEEGDDKDDYWREQQEKLEIEKRAIVEDHSLVAEEKMRLLKEKEKKMEDLRREKDAAEMLGAKIKAMESKLLVGGKNIVDHTNEQQKILEQKRQEIAEQKRREREIQQQMESRDEETLELKETYSSLQQEVDIKTKKLKKLFSKLQAVKAEIHDLQEEHIKERQELEQTQNELTRELKLKHLIIENFIPLEEKSKIMNRAFFDEEEDHWKLHPITRLENQQMMKRPVSAVGYKRPLSQHARMSMMIRPEARYRAENIVLLELDMPSRTTRDYEGPAIAPKVQAALDAALQDEDEIQVDASSFESTANKKSKARPKSGRKSGSSSSSSGTPASQLYPQSRGLVPK
